Consider five molecules from publication PMC11408855, “The structure of the SufS–SufE complex reveals interactions driving protected persulfide transfer in iron-sulfur cluster biogenesis” (The Journal of Biological Chemistry, 2024).

Numbering of substitutions follows the chain as printed. Names may count otherwise. Results are given in words; binding and its absence hold for the method and conditions named. For some assays here: Sequences can lack the tags named with a protein.

For assay [1], the target named is T1, WT EcSufE (Escherichia coli), P76194.
T1 chain: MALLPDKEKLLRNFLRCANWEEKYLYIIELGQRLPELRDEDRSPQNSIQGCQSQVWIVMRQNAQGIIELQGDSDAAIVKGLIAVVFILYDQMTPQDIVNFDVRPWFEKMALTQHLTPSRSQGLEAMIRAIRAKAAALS
The assay can be described thus: SEC; S75 10/300 column, 100 μl of 4 mg/ml protein, 50 mM Mops pH 8.0, 150 mM NaCl, 1 ml/min; both purified. The conditions noted are these: remark: other sources report otherwise.

Assay [2] has as its target R119A EcSufE (WT background) (Escherichia coli) (UniProt P76194). The description is as above.
Assay [3] concerns the target R119K EcSufE (WT background) (Escherichia coli) (UniProt P76194). The assay is described as above.
Assay [4] deals with T2, BODIPY-FL-labeled C51A/E107C EcSufE (Escherichia coli) (UniProt P76194).
T2 sequence (chain, BODIPY-FL maleimide label (labeling efficiency 60 to 80%)): T1 chain with C51A, E107C
The assay can be described thus: fluorescence polarisation; 100 nM BODIPY-FL-labeled EcSufE titrated with EcSufS; 50 mM Mops pH 8.0, 150 mM NaCl, 0.1 mg/ml bovine serum albumin, 25 °C, 30 min; absence of cysteine; apparent KD; both purified.

B1: WT EcSufE, P76194 1-138 (protein)
chain: T1 chain
On to B1, for which, in assay [1], the binding entry was “no binding (tested: 4 mg/ml)”.

B2: R119A EcSufE (WT background) (protein, UniProt P76194 1-138)
chain: T1 chain with R119A
Take B2: the binding result in assay [2] is “no binding (tested: 4 mg/ml)”.

B3: R119K EcSufE (WT background) (protein, UniProt P76194 1-138)
chain: T1 chain with R119K
Consider B3, for which, in assay [3], the binding result is “no binding (tested: 4 mg/ml)”.

B4: D346A EcSufS, C-terminal his-tagged (enzyme, UniProt P77444 1-406)
chain: MIFSVDKVRADFPVLSREVNGLPLAYLDSAASAQKPSQVIDAEAEFYRHGYAAVHRGIHTLSAQATEKMENVRKRASLFINARSAEELVFVRGTTEGINLVANSWGNSNVRAGDNIIISQMEHHANIVPWQMLCARVGAELRVIPLNPDGTLQLETLPTLFDEKTRLLAITHVSNVLGTENPLAEMITLAHQHGAKVLVDGAQAVMHHPVDVQALDCDFYVFSGHKLYGPTGIGILYVKEALLQEMPPWEGGGSMIATVSLSEGTTWTKAPWRFEAGTPNTGGIIGLGAALEYVSALGLNNIAEYEQNLMHYALSQLESVPDLTLYGPQNRLGVIAFNLGKHHAYAVGSFLDNYGIAVRTGHHCAMPLMAYYNVPAMCRASLAMYNTHEEVDRLVTGLQRIHRLLG
modifications: PLP (pyridoxal 5'-phosphate) cofactor
Regarding B4, the binding entry in assay [4] is listed as “no binding (tested: up to 20 μM; KD >>40 μM)”.

B5: F350A EcSufS, C-terminal his-tagged (enzyme, UniProt P77444 1-406)
chain: B4 chain with A346D, F350A
modifications: PLP (pyridoxal 5'-phosphate) cofactor
With B5, in assay [4], the binding entry is “no binding (tested: up to 20 μM; KD >>40 μM)”.
